Where a name gives a salt, the structure may show the parent alone. Some of the results follow. Single values are uncertain here, since repeats match poorly.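 About 40 Schistosoma mansoni schistosomula per well were imaged over time in bright field and compared with 0.1% DMSO wells. A drug counts as a hit if its Mahalanobis distance reaches 2.47 or more, three standard deviations above the DMSO control mean. Degeneracy is the fraction of worms scored opaque.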
What follows are compounds tested on Schistosoma mansoni schistosomula (assay: Mahalanobis distance of static-rate-frequency phenotype descriptors from DMSO controls (dimensionless); higher = stronger phenotypic change versus DMSO). Settings: 10 µM; 72 h.

Compound	Mahalanobis distance
CC(=O)Oc1cc(C(C)C)c(OCCN(C)C)cc1C [Moxisylyte Hydrochoride]	inactive: 1.55
O=C(O)c1cc(O)c2c(c1)[C@H]([C@H]1c3cc(C(=O)O)cc(O)c3C(=O)c3c(O[C@@H]4O[C@H](CO)[C@@H](O)[C@H](O)[C@H]4O)cccc31)c1cccc(O[C@@H]3O[C@H](CO)[C@@H](O)[C@H](O)[C@H]3O)c1C2=O [Sennoside A]	inactive: 1.35
Nc1ncnc2c1ncn2[C@@H]1O[C@H](COP(=O)(O)O)[C@@H](O)[C@H]1O [Adenosine Phosphate]	active: 3.21
CCC(=O)O[C@H]1[C@H](O[C@@H]2[C@@H](C)[C@H](O[C@H]3C[C@@](C)(OC)[C@@H](O)[C@H](C)O3)[C@@H](C)C(=O)O[C@H](CC)[C@@](C)(O)[C@H](O)[C@@H](C)C(=O)[C@H](C)C[C@@]2(C)O)O[C@H](C)C[C@@H]1N(C)C [Erythromycin Propionate]	active: 4.08
CC1=C(/C=C/C(C)=C/C=C/C(C)=C/C(=O)Nc2ccc(O)cc2)C(C)(C)CCC1 [Fenretinide]	inactive: 2.18
O=c1[nH]c(=O)n([C@H]2C[C@H](O)[C@@H](CO)O2)cc1F [Floxuridine]	inactive: 1.92
CN(C)CCc1c[nH]c2ccc(C[C@H]3COC(=O)N3)cc12 [Zolmitriptan]	inactive: 1.33
CN(C)CCC=C1c2ccccc2C=Cc2ccccc21 [Cyclobenzaprine]	inactive: 2.09
Nc1ccc(S(=O)(=O)Nc2ccc(Cl)nn2)cc1 [Sulfachlorpyridazine]	inactive: 1.87
Cc1cc2nc3ccc(N(C)C)cc3[s+]c2cc1N [Tolonium Chloride]	inactive: 2.22
CC1CCC(NC(=O)N(CCCl)N=O)CC1 (stereo not given) [Semustine]	inactive: 2.1
COc1cc2nc(N3CCN(C(=O)C4CCCO4)CC3)nc(N)c2cc1OC (stereo not given) [Terazosin]	inactive: 2.4
C[C@H]1C[C@H]2[C@@H]3CCC4=CC(=O)C=C[C@]4(C)[C@@]3(Cl)[C@@H](O)C[C@]2(C)[C@@]1(O)C(=O)CO [Beclomethasone]	active: 4.46
COc1cc(C(=O)N2CCOCC2)cc(OC)c1OC [Trimetozine]	inactive: 2.47
S=C=Nc1ccc(N=C=S)cc1 [Bitoscanate]	inactive: 2.16
OC[C@@H](O)[C@@H](O)[C@H](O)[C@@H](O)CO [Sorbitol]	inactive: 1.49
CN(C)CCCOc1nn(Cc2ccccc2)c2ccccc12 [Benzydamine Hydrochloride]	active: 3.91
O=C(N/N=C/c1ccc([N+](=O)[O-])o1)c1ccc(O)cc1 [nifuroxazide]	active: 2.63
CN1CCN(C(c2ccccc2)c2ccc(Cl)cc2)CC1 (stereo not given) [Chlorcyclizine Hydrochloride]	inactive: 1.79
CC(=O)Nc1c(I)c(NC(C)=O)c(I)c(C(=O)O)c1I [Diatrizoic Acid]	inactive: 1.31

A run of entries from further up:
Compound	Mahalanobis distance
CN1CCN(C(c2ccccc2)c2ccc(Cl)cc2)CC1 (stereo not given) [Chlorcyclizine Hydrochloride]	inactive: 1.79
CC(=O)Nc1c(I)c(NC(C)=O)c(I)c(C(=O)O)c1I [Diatrizoic Acid]	inactive: 1.31

(list continues)

Compound	Mahalanobis distance
C[C@H]1[C@H](NC(=O)/C(=N\OC(C)(C)C(=O)O)c2csc(N)n2)C(=O)N1S(=O)(=O)O [Aztreonam]	inactive: 1.33
CNCCC=C1c2ccccc2CCc2ccccc21 [Nortriptyline]	inactive: 2.03
C=C1/C(=C\C=C2/CCC[C@]3(C)[C@@H]([C@H](C)CCCC(C)(C)O)CC[C@@H]23)C[C@@H](O)C[C@@H]1O [Calcitriol]	inactive: 2.43
CC(C)(O/N=C(\C(=O)N[C@@H]1C(=O)N2C(C(=O)[O-])=C(C[n+]3ccccc3)CS[C@H]12)c1csc(N)n1)C(=O)O [Ceftazidime]	inactive: 1.34
Cc1ccc(/C(=C\CN2CCCC2)c2ccccn2)cc1 [Triprolidine Hydrochloride]	active: 3.39
C[C@]12C=CC(=O)C=C1CC[C@@H]1[C@@H]2C(=O)C[C@@]2(C)[C@H]1CC[C@]2(O)C(=O)CO [Prednisone]	inactive: 2.36
CCC1=C[C@@H]2CN(C1)Cc1c([nH]c3ccccc13)[C@@](C(=O)OC)(c1cc3c(cc1OC)N(C)[C@H]1[C@@](O)(C(=O)OC)[C@H](OC(C)=O)[C@]4(CC)C=CCN5CC[C@]31[C@@H]54)C2 [Vinorelbine]	inactive: 1.69
OCc1ccccc1 [Benzyl Alcohol]	inactive: 1.64
CNC(=C[N+](=O)[O-])NCCSCc1csc(CN(C)C)n1 [Nizatidine]	inactive: 1.38
CS(=O)(=O)Nc1ccc([N+](=O)[O-])cc1Oc1ccccc1 [Nimesulide]	inactive: 2.3
Cc1ccc(S(=O)(=O)NCl)cc1 [Chloramine-t]	inactive: 1.54
O=C(O)P(=O)(O)O [Foscarnet Sodium]	inactive: 2.19
CCCCCCCCCCCCCCCC[N+](C)(C)CCN(Cc1ccc(OC)cc1)c1ncccn1 [Thonzonium Bromide]	active: 2.9
C#C[C@]1(O)CC[C@H]2[C@@H]3CCc4cc(OC)ccc4[C@H]3CC[C@@]21C [Mestranol]	inactive: 1.99
CCOc1ccccc1C(N)=O [Ethenzamide]	inactive: 1.6
CO[C@H]1C[C@@H]2CC[C@@H](C)[C@@](O)(O2)C(=O)C(=O)N2CCCC[C@H]2C(=O)O[C@H]([C@H](C)C[C@@H]2CC[C@@H](O)[C@H](OC)C2)CC(=O)[C@H](C)/C=C(\C)[C@@H](O)[C@@H](OC)C(=O)[C@H](C)C[C@H](C)/C=C/C=C/C=C/1C [Rapamycin]	active: 3.64
CO[C@H]1C[C@@H]2CC[C@@H](C)[C@@](O)(O2)C(=O)C(=O)N2CCCC[C@H]2C(=O)O[C@H]([C@H](C)C[C@@H]2CC[C@@H](O)[C@H](OC)C2)CC(=O)[C@H](C)/C=C(\C)[C@@H](O)[C@@H](OC)C(=O)[C@H](C)C[C@H](C)/C=C/C=C/C=C/1C [Sirolimus]	inactive: 1.45
NS(=O)(=O)c1ccc(C(=O)O)cc1 [Carzenide]	inactive: 1.78
CC(C)(CO)[C@@H](O)C(=O)NCCCO [Dexpanthenol]	inactive: 2.44
CN1C(=O)CC(C)(c2ccccc2)C1=O (stereo not given) [Methsuximide]	inactive: 1.65
